{
  "source": "patent US20080194922A1",
  "about": "“POTENTIATION FOR MEDICAL THERAPIES” (priority 2005, published 2008)",
  "key": {"[1]": {"test_system": "cat with multiple myeloma", "experiment": "Delta Correlation Function analysis of dexamethasone dose versus food intake, cat myeloma model", "assay_type": "in vivo", "conditions": "day of dosing", "from_the_text": "The inventive method was used to analyze changes from day to day. The data was digitized by substituting either +1 for positive change (dayn+i greater than dayn), 0 (zero) for no change, and −1 for negative change (dayn+i less than dayn). Digitizing the change magnifies small changes by giving small differences the same value as large differences. For example, a positive change is noted as +1 whether the change is 1 milligram or 10 grams.\nThe inventive method multiplied a digitized change in therapy element by the corresponding digitized change in correlation factor to produce a correlation product. Because the digitized changes are signed (+ or −), changes in the same direction (both positive or both negative) produce a positive product. Changes in opposite directions (one negative and one positive) produce a negative product. The inventive method then provided a rolling average of correlation products over fixed period of time. (A positive average indicates a positive correlation between dose and result.) […]\nA method provided by the invention was used to optimize the dexamethasone regimen based on the correlation factor food intake (i.e., determined the dexamethasome regimen that produces an increase in food intake.) Again, the cat myeloma model was used. […] The normalized DCF was calculated based upon a 24 time point sample (Days 445 to 469) with various offsets."}, "[2]": {"test_system": "multiple myeloma in a cat", "experiment": "Narrow therapeutic band established by potentiating the therapy of multiple myeloma in a cat"}},
  "note": "At least one structure is not confirmed: it was looked up by name or label, or the drawing left a doubt.",
  "data": [
    {"smiles": "C[C@@H]1C[C@H]2[C@@H]3CCC4=CC(=O)C=C[C@]4(C)[C@@]3(F)[C@@H](O)C[C@]2(C)[C@@]1(O)C(=O)CO", "note": "[dexamethasone]", "values": [
      {"measurement": "appetite on the day that dexamethasone is given", "setting": "[1]", "result": "lower"},
      {"measurement": "therapeutic effect at minimum dose", "setting": "[2]; dexamethasone 0.125 mg (modulated 2 days on, 1 day off), in combination with the other elements of the potentiating protocol", "result": "controlled disease"},
      {"measurement": "therapeutic effect above end point of narrow band", "setting": "[2]; dexamethasone doses above 0.162 mg", "result": "constant"}
    ]}
  ]
}
